Laboratory results from US10351575B2, “Bicyclic urea, thiourea, guanidine and cyanoguanidine compounds useful for the treatment of pain” (Array BioPharma Inc., priority 2012, dated 2019).
At least one compound was matched to its structure with a doubt left.

System: CK1_y
Assay: KinaseProfiler off-target kinase profiling
Format: biochemical
Settings: 10 μM, ATP near Km
Procedure: Representative compounds (Examples 12, 32, 26 and 2) of the invention were tested for off-target kinase activity at a concentration of 10 μM by Millipore, Inc. in their KinaseProfiler™ service against all the kinases available in their full kinase panel. Compounds were run in duplicate at a concentration of ATP near the Km for each individual kinase according to Millipore's specifications. The results are shown in Table B. Data are reported as percent of control (POC) and are the average of the two replicates.

**Q.** Which “Avg. POC” value does the source give for `Cc1c(-c2ccc(=O)n(C)c2)nn(-c2ccccc2)c1NC(=O)NC1CN(CC(F)(F)F)Cc2ccccc21` (stereo not shown) [Example 26, 1-(4-methyl-3-(1-methyl-6-oxo-1,6-dihydropyridin-3-yl)-1-phenyl-1H-pyrazol-5-yl)-3-(2-(2,2,2-trifluoroethyl)-1,2,3,4-tetrahydroisoquinolin-4-yl)urea] here?
**A.** 104.5 POC
